Test [1] addresses HACE1(S385A), phospho-resistant mutant, HA- or myc-tagged (UniProt Q8IYU2). Nature of the test: co-IP; MCF12A cells 20 hours post-transfection, lysed in 50 mM Tris-HCl pH 7.5, 150 mM NaCl, 1% Triton-X100, 0.27 M sucrose; anti-HA or anti-Flag affinity gel, 2 hours at 4 °C; immunoblot; in some samples active PAK1(K141A) co-expressed. (Immunoblotting shows a protein as a band on a membrane.)

The target of test [2] is T1, HACE1(WT), full length (FL), HA- or myc-tagged, Q8IYU2.
T1 chain: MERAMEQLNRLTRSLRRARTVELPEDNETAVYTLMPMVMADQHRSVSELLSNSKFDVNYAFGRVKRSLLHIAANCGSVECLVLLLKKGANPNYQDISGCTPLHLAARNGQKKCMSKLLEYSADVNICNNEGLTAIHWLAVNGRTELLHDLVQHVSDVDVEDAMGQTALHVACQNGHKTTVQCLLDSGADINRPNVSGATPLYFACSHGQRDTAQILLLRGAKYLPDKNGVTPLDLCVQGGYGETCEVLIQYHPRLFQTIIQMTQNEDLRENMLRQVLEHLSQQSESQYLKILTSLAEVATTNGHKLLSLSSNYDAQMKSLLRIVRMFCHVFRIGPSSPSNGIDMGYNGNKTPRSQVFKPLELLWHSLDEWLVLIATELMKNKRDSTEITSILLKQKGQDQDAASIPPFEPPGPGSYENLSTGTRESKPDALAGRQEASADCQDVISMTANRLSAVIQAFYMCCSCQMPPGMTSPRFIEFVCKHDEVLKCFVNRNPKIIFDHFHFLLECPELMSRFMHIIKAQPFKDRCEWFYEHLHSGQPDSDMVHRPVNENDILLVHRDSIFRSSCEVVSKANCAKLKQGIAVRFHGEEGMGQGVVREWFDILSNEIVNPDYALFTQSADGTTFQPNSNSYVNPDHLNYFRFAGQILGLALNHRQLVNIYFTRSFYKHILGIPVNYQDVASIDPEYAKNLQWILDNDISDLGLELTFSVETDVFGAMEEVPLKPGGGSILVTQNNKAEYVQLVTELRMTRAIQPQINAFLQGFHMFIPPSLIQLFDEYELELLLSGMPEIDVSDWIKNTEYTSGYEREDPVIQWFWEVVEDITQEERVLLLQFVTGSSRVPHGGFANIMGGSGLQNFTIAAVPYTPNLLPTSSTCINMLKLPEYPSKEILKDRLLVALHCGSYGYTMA
The description is as above. The conditions noted are these: remark: other sources report otherwise.

Results are given in words; binding and its absence hold for the method and conditions named. Binding seen in cells or lysates may run through a third protein. Some entries that bind do so weakly or less than the wild type. Where a sequence is shown, tags or fusion partners need not be part of it.

B1: HACE1(S385A), phospho-resistant mutant, HA- or myc-tagged (enzyme, UniProt Q8IYU2 1-909)
chain: MERAMEQLNRLTRSLRRARTVELPEDNETAVYTLMPMVMADQHRSVSELLSNSKFDVNYAFGRVKRSLLHIAANCGSVECLVLLLKKGANPNYQDISGCTPLHLAARNGQKKCMSKLLEYSADVNICNNEGLTAIHWLAVNGRTELLHDLVQHVSDVDVEDAMGQTALHVACQNGHKTTVQCLLDSGADINRPNVSGATPLYFACSHGQRDTAQILLLRGAKYLPDKNGVTPLDLCVQGGYGETCEVLIQYHPRLFQTIIQMTQNEDLRENMLRQVLEHLSQQSESQYLKILTSLAEVATTNGHKLLSLSSNYDAQMKSLLRIVRMFCHVFRIGPSSPSNGIDMGYNGNKTPRSQVFKPLELLWHSLDEWLVLIATELMKNKRDATEITSILLKQKGQDQDAASIPPFEPPGPGSYENLSTGTRESKPDALAGRQEASADCQDVISMTANRLSAVIQAFYMCCSCQMPPGMTSPRFIEFVCKHDEVLKCFVNRNPKIIFDHFHFLLECPELMSRFMHIIKAQPFKDRCEWFYEHLHSGQPDSDMVHRPVNENDILLVHRDSIFRSSCEVVSKANCAKLKQGIAVRFHGEEGMGQGVVREWFDILSNEIVNPDYALFTQSADGTTFQPNSNSYVNPDHLNYFRFAGQILGLALNHRQLVNIYFTRSFYKHILGIPVNYQDVASIDPEYAKNLQWILDNDISDLGLELTFSVETDVFGAMEEVPLKPGGGSILVTQNNKAEYVQLVTELRMTRAIQPQINAFLQGFHMFIPPSLIQLFDEYELELLLSGMPEIDVSDWIKNTEYTSGYEREDPVIQWFWEVVEDITQEERVLLLQFVTGSSRVPHGGFANIMGGSGLQNFTIAAVPYTPNLLPTSSTCINMLKLPEYPSKEILKDRLLVALHCGSYGYTMA
In the case of B1, the binding result in test [1] is “binds”.

B2: HACE1(WT), full length (FL), HA- or myc-tagged, Q8IYU2 1-909 (enzyme)
chain: MERAMEQLNRLTRSLRRARTVELPEDNETAVYTLMPMVMADQHRSVSELLSNSKFDVNYAFGRVKRSLLHIAANCGSVECLVLLLKKGANPNYQDISGCTPLHLAARNGQKKCMSKLLEYSADVNICNNEGLTAIHWLAVNGRTELLHDLVQHVSDVDVEDAMGQTALHVACQNGHKTTVQCLLDSGADINRPNVSGATPLYFACSHGQRDTAQILLLRGAKYLPDKNGVTPLDLCVQGGYGETCEVLIQYHPRLFQTIIQMTQNEDLRENMLRQVLEHLSQQSESQYLKILTSLAEVATTNGHKLLSLSSNYDAQMKSLLRIVRMFCHVFRIGPSSPSNGIDMGYNGNKTPRSQVFKPLELLWHSLDEWLVLIATELMKNKRDSTEITSILLKQKGQDQDAASIPPFEPPGPGSYENLSTGTRESKPDALAGRQEASADCQDVISMTANRLSAVIQAFYMCCSCQMPPGMTSPRFIEFVCKHDEVLKCFVNRNPKIIFDHFHFLLECPELMSRFMHIIKAQPFKDRCEWFYEHLHSGQPDSDMVHRPVNENDILLVHRDSIFRSSCEVVSKANCAKLKQGIAVRFHGEEGMGQGVVREWFDILSNEIVNPDYALFTQSADGTTFQPNSNSYVNPDHLNYFRFAGQILGLALNHRQLVNIYFTRSFYKHILGIPVNYQDVASIDPEYAKNLQWILDNDISDLGLELTFSVETDVFGAMEEVPLKPGGGSILVTQNNKAEYVQLVTELRMTRAIQPQINAFLQGFHMFIPPSLIQLFDEYELELLLSGMPEIDVSDWIKNTEYTSGYEREDPVIQWFWEVVEDITQEERVLLLQFVTGSSRVPHGGFANIMGGSGLQNFTIAAVPYTPNLLPTSSTCINMLKLPEYPSKEILKDRLLVALHCGSYGYTMA
Regarding B2, the binding result in test [2] is “binds”.

The values are drawn from publication PMC5780496.
